Results deposited as PubChem BioAssay AID1053208 (Peter MacCallum Cancer Centre, 2014)
The deposit covers about 17,000 reagents; below is a part drawn at random. Of all reagents, 788 (4.7%) were called active. 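Calls rest on z-score classes alone; an extra cut-off of viability at most 70% of control was not applied to them.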 The numbers tell different reagents against one gene apart. Further read-outs or replicates are left out here.

Test: 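Find knock-downs that sensitise mouse osteosarcoma cells to doxorubicin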 (primary screen)
Cell system: mouse osteosarcoma cells, early-passage culture from an engineered mouse model of fibroblastic bone tumour
Reagents: siRNA pool against mouse genes, 40 nM
Timing: about 120 h (48 h before drug, then 72 h with drug)
Conditions: doxorubicin 100 nM for 72 h, roughly 30-40% inhibitory dose
Measurement: 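Luminescent ATP signal taken as viability with or without 100 nM doxorubicin for 72 h; mean of two wells set against non-targeting siRNA and turned into robust z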
Direction: viability z-score with doxorubicin: higher = more viable cells under doxorubicin; viability z-score without drug: higher = more viable cells with knock-down alone
Rule for the call: 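a pool counts as active when its viability z-score with doxorubicin is -2 or below and its z-score without drug lies between -2 and 2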

gene	reagent	combined z-score class	viability z-score with doxorubicin	viability z-score without drug	activity call
Nudt9 (GeneID 74167)	1	high cell count without drug only	1.12	2.02	inactive
Sertad2 (GeneID 58172)	1	high cell count with and without drug	2.25	2.19	inactive
Or2t26 (GeneID 258877)	1	no change with or without drug	-1.35	-1.01	inactive
Maml3 (GeneID 433586)	1	no change with or without drug	0.9	0.17	inactive
Rps4x (GeneID 20102)	1	low cell count with and without drug	-4.27	-4.38	inactive
Thap11 (GeneID 59016)	1	high cell count with doxorubicin only	3.04	1.18	inactive
Slc18a1 (GeneID 110877)	1	low cell count with doxorubicin only	-2.14	-0.34	active
Cklf (GeneID 75458)	1	no change with or without drug	-1.12	-1.85	inactive
Or4b12 (GeneID 258789)	1	no change with or without drug	-1.01	-1.18	inactive
Gtf2i (GeneID 14886)	1	no change with or without drug	0.79	0	inactive
Gdpd3 (GeneID 68616)	1	no change with or without drug	0.34	0.51	inactive
Or14j7 (GeneID 383243)	1	no change with or without drug	-0.22	-1.35	inactive
Gm4736 (GeneID 100502592)	1	no change with or without drug	-1.8	0	inactive
Dcaf8l (GeneID 18630)	1	low cell count with doxorubicin only	-2.81	-1.18	active
Zdhhc6 (GeneID 66980)	1	no change with or without drug	-0.34	-0.17	inactive
Etfdh (GeneID 66841)	1	no change with or without drug	0.79	0.51	inactive
Or5aq1b (GeneID 258841)	1	no change with or without drug	0.22	0.51	inactive
Dennd4a (GeneID 102442)	1	no change with or without drug	0.34	0.84	inactive
Dennd4a (GeneID 102442)	2	low cell count with doxorubicin only	-2.7	-1.18	active
Or11q2 (GeneID 236784)	1	low cell count without drug only	-1.8	-2.36	inactive
Map2 (GeneID 17756)	1	no change with or without drug	0.45	-0.17	inactive
Psd2 (GeneID 74002)	1	no change with or without drug	-1.91	1.85	inactive
Casp9 (GeneID 12371)	1	no change with or without drug	0.67	1.18	inactive
Dus3l (GeneID 224907)	1	high cell count without drug only	1.91	2.53	inactive
Igfn1 (GeneID 226438)	1	no change with or without drug	-1.46	-0.51	inactive
Dalrd3 (GeneID 67789)	1	no change with or without drug	1.57	1.52	inactive
Obox3 (GeneID 246791)	1	no change with or without drug	-0.22	0.51	inactive
Trh (GeneID 22044)	1	no change with or without drug	-0.9	0.51	inactive
Vmn1r203 (GeneID 171270)	1	high cell count without drug only	1.01	2.19	inactive
Or10aa1 (GeneID 258712)	1	no change with or without drug	0.9	-0.84	inactive
Mtmr3 (GeneID 74302)	1	no change with or without drug	1.12	0.51	inactive
Faim (GeneID 23873)	1	no change with or without drug	0.45	0.17	inactive
Mrpl53 (GeneID 68499)	1	no change with or without drug	-1.35	-1.18	inactive
Egfl8 (GeneID 81701)	1	no change with or without drug	-0.67	0.17	inactive
Slc39a5 (GeneID 72002)	1	no change with or without drug	-0.67	0.51	inactive
Fstl4 (GeneID 320027)	1	no change with or without drug	0.22	0.67	inactive
Ost4 (GeneID 67695)	1	no change with or without drug	0.34	-0.51	inactive
Rpn2 (GeneID 20014)	1	no change with or without drug	-1.57	-0.34	inactive
Gosr2 (GeneID 56494)	1	no change with or without drug	0.79	0.34	inactive
Arf1 (GeneID 11840)	1	no change with or without drug	-1.01	-1.69	inactive
Cep78 (GeneID 208518)	1	no change with or without drug	0.34	1.35	inactive
Tex2 (GeneID 21763)	1	no change with or without drug	-0.22	-0.17	inactive
Rest (GeneID 19712)	1	no change with or without drug	-0.9	0.17	inactive
Samd8 (GeneID 67630)	1	low cell count without drug only	-1.57	-2.19	inactive
Rtn4rl1 (GeneID 237847)	1	no change with or without drug	-0.45	-0.17	inactive
Flt3 (GeneID 14255)	1	high cell count without drug only	-0.9	2.36	inactive
Pdcd6ip (GeneID 18571)	1	no change with or without drug	-0.45	-0.17	inactive
Mrps24 (GeneID 64660)	1	low cell count with and without drug	-3.37	-2.87	inactive
Clmp (GeneID 71566)	1	no change with or without drug	0.34	-0.34	inactive
Rpl12 (GeneID 269261)	1	low cell count with and without drug	-7.31	-7.25	inactive

7 entries from above, reformatted:
Mtmr3 (GeneID 74302)
- combined z-score class: no change with or without drug
- viability z-score with doxorubicin: 1.12
- viability z-score without drug: 0.51
- activity call: inactive

Faim (GeneID 23873)
- combined z-score class: no change with or without drug
- viability z-score with doxorubicin: 0.45
- viability z-score without drug: 0.17
- activity call: inactive

Mrpl53 (GeneID 68499)
- combined z-score class: no change with or without drug
- viability z-score with doxorubicin: -1.35
- viability z-score without drug: -1.18
- activity call: inactive

Egfl8 (GeneID 81701)
- combined z-score class: no change with or without drug
- viability z-score with doxorubicin: -0.67
- viability z-score without drug: 0.17
- activity call: inactive

Slc39a5 (GeneID 72002)
- combined z-score class: no change with or without drug
- viability z-score with doxorubicin: -0.67
- viability z-score without drug: 0.51
- activity call: inactive

Fstl4 (GeneID 320027)
- combined z-score class: no change with or without drug
- viability z-score with doxorubicin: 0.22
- viability z-score without drug: 0.67
- activity call: inactive

Ost4 (GeneID 67695)
- combined z-score class: no change with or without drug
- viability z-score with doxorubicin: 0.34
- viability z-score without drug: -0.51
- activity call: inactive
